Measurements taken from US20230151083A1.
Positions count from the first letter of the chain named. No constants are given. Whether binding was seen depends on the method and setting. For part of these data: Binding can be weak; no strength is given.

B1: PT1B847 (antibody, human IgG1, kappa, V domains shown)
VH: EVQLVESGGGLVKPGGSLRLSCAASGFTFSSYAMSWVRQAPGKRLEWVASISKGGNTYYPNSVKGRFTISRDNAKNSLYLQMNSLRAEDTAVYYCARGWGDYGWFAYWGQVTLVTVSS
VL: DIQMTQSPSSLSASVGDRVTITCKASQDINRYLNWFQQKPGKAPKTLIYRANRLLDGVPSRFSGSGSGTDFTLTISSLQPEDFATYYCQQYDEFPLTFGQGTKLEIKR
B2: PT1B856 (antibody, human IgG1, kappa, V domains shown)
VH: B1 VH with A40N, R44G, N61D
VL: B1 VL
B3: PT3 hIgG1 (antibody, V domains shown)
VH: EVKLVESGGDLVKPGGSLKLSCAASGFTFSSYAMSWVRQNPEKRLEWVASISKGGNTYYPNSVKGRFTISRDNARNILYLQMSSLRSEDTALYYCARGWGDYGWFAYWGQVTLVTVSA
VL: DIKMTQSPSSMYASLGERVTITCKASQDINRYLNWFQQKPGKSPKTLIYRANRLLDGVPSRFSGSGSGQDYSLTISSLDYEDMGIYYCLQYDEFPLTFGDGTKLELK

target: tau from minipig brain (minipig); assay: Western blot on brain homogenate, antibody 1 µg/mL

binding | Binder
binds | B1
binds | B2
binds | B3

target: tau from dog brain (dog); assay: Western blot on brain homogenate, antibody 1 µg/mL

binding | Binder
binds | B1
binds | B2
binds | B3

target: tau from marmoset brain (marmoset); assay: Western blot on brain homogenate, antibody 1 µg/mL

binding | Binder
binds | B1
binds | B2
binds | B3

target: tau from Cynomolgous monkey brain (Cynomolgous monkey); assay: Western blot on brain homogenate

binding | Binder
no binding (tested: 1 µg/mL) | B1
no binding (tested: 1 µg/mL) | B2
no binding (tested: 1 µg/mL) | B3
